Consider 5 substances from PMC5364396.

By UniProt entry, the sequences of proteins in these tests, tags left out. Residues count along the entry.
UniProt Q9P2D1, residues 1-1899: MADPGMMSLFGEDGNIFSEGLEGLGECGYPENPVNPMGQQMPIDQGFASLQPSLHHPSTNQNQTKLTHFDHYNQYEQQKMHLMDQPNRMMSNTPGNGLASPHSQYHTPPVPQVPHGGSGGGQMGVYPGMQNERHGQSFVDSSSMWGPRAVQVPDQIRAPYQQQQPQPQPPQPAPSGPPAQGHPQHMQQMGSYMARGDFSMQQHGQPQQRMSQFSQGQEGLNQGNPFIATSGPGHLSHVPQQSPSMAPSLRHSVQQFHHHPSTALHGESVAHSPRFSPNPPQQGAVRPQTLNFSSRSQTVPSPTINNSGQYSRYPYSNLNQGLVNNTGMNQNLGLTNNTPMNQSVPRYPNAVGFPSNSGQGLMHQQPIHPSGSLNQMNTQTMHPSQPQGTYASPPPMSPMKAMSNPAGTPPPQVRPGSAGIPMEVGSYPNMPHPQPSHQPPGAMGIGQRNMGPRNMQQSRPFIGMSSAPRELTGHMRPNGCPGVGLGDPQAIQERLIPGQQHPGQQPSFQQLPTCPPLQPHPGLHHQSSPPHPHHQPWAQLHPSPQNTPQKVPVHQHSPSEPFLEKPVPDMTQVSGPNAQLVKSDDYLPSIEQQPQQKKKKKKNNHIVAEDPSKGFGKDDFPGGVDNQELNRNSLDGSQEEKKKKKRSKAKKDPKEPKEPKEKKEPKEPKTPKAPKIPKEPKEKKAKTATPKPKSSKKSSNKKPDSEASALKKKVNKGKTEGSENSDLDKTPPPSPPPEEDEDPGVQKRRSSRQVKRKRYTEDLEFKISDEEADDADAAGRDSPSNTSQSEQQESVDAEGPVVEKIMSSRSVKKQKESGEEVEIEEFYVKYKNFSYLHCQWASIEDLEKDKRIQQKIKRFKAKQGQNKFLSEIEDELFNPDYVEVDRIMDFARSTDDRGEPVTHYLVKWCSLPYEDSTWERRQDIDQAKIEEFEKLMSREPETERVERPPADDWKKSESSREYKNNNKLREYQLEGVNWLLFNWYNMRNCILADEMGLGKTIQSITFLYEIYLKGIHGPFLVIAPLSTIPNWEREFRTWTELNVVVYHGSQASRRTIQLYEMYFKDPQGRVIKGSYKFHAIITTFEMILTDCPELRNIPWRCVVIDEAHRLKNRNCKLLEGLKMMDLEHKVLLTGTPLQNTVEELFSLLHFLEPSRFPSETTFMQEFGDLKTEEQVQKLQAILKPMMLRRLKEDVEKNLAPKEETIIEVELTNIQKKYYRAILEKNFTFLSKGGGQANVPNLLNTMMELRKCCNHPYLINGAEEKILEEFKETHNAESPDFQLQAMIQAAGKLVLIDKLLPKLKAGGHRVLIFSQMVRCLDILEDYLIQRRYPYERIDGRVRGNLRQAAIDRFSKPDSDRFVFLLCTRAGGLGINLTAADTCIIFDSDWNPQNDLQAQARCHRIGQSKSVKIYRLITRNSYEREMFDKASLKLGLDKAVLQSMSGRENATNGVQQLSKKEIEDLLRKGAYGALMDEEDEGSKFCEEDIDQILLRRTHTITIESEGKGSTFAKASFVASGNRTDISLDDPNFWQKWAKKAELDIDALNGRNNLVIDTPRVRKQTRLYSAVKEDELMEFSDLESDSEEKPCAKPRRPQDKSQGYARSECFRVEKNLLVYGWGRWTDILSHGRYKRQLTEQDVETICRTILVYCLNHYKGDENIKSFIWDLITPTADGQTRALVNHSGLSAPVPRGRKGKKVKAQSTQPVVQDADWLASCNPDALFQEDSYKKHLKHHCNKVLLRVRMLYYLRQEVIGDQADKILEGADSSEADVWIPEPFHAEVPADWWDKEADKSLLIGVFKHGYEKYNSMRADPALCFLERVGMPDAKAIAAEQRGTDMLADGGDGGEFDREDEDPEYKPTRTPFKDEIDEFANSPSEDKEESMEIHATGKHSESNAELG
UniProt P51532: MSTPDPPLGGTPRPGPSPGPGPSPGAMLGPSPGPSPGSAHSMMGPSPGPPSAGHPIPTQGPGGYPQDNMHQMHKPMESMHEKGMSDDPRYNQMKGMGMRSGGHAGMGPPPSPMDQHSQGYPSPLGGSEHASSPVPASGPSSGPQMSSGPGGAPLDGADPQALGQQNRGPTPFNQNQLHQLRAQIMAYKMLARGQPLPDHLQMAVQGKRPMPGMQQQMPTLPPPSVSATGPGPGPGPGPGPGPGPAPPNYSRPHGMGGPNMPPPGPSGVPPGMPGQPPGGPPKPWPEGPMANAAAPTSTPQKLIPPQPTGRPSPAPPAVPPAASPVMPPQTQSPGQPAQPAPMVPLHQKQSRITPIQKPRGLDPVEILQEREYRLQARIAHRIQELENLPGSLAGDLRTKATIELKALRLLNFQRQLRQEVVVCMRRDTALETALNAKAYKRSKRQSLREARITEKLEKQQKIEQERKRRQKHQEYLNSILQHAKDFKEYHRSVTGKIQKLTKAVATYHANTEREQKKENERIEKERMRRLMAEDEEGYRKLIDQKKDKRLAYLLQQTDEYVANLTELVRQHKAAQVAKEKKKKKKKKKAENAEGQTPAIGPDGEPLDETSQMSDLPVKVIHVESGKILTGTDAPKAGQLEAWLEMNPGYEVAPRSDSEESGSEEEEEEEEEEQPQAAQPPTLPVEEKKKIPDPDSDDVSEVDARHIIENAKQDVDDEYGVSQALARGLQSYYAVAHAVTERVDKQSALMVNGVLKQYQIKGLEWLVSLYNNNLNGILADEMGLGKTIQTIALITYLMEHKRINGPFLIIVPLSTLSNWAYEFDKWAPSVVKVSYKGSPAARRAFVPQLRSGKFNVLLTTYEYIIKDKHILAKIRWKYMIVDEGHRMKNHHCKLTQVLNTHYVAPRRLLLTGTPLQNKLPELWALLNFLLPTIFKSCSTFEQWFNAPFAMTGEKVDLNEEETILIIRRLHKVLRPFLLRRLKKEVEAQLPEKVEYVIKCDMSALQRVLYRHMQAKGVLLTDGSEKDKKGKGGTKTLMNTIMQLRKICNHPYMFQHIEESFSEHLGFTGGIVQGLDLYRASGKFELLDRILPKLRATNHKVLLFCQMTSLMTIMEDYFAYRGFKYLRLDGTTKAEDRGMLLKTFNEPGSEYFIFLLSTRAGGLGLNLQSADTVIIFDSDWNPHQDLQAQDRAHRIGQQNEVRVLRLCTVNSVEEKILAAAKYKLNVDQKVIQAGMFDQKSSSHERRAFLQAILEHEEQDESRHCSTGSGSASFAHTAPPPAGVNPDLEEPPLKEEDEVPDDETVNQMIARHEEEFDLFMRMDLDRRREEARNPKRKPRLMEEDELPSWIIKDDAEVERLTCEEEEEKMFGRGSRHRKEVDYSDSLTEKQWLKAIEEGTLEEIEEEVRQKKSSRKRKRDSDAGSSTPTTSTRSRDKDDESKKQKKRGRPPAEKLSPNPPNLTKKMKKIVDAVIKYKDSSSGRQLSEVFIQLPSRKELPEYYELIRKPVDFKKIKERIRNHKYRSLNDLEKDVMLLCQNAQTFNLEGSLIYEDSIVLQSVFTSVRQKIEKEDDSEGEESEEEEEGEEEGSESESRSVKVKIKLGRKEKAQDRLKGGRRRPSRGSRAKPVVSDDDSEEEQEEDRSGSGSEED
UniProt P11387: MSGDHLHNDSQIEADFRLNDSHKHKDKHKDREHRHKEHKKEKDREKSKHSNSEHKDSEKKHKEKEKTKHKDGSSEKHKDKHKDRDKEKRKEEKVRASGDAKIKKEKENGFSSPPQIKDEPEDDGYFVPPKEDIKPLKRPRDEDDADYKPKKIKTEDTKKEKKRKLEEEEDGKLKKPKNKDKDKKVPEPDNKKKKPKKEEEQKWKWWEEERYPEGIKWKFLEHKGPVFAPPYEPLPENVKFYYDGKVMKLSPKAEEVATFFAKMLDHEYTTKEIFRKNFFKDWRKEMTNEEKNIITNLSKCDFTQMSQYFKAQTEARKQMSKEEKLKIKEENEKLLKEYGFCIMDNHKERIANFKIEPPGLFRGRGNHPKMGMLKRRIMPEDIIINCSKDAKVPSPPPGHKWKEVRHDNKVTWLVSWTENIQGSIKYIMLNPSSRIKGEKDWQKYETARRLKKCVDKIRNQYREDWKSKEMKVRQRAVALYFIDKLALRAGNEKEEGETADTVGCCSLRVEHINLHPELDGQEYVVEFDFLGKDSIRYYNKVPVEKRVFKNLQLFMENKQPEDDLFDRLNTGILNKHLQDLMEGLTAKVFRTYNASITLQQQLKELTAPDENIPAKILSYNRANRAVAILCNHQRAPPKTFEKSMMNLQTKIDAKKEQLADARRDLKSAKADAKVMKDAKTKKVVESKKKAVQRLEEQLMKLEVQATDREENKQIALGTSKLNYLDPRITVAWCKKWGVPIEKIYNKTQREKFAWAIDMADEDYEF
UniProt Q02880: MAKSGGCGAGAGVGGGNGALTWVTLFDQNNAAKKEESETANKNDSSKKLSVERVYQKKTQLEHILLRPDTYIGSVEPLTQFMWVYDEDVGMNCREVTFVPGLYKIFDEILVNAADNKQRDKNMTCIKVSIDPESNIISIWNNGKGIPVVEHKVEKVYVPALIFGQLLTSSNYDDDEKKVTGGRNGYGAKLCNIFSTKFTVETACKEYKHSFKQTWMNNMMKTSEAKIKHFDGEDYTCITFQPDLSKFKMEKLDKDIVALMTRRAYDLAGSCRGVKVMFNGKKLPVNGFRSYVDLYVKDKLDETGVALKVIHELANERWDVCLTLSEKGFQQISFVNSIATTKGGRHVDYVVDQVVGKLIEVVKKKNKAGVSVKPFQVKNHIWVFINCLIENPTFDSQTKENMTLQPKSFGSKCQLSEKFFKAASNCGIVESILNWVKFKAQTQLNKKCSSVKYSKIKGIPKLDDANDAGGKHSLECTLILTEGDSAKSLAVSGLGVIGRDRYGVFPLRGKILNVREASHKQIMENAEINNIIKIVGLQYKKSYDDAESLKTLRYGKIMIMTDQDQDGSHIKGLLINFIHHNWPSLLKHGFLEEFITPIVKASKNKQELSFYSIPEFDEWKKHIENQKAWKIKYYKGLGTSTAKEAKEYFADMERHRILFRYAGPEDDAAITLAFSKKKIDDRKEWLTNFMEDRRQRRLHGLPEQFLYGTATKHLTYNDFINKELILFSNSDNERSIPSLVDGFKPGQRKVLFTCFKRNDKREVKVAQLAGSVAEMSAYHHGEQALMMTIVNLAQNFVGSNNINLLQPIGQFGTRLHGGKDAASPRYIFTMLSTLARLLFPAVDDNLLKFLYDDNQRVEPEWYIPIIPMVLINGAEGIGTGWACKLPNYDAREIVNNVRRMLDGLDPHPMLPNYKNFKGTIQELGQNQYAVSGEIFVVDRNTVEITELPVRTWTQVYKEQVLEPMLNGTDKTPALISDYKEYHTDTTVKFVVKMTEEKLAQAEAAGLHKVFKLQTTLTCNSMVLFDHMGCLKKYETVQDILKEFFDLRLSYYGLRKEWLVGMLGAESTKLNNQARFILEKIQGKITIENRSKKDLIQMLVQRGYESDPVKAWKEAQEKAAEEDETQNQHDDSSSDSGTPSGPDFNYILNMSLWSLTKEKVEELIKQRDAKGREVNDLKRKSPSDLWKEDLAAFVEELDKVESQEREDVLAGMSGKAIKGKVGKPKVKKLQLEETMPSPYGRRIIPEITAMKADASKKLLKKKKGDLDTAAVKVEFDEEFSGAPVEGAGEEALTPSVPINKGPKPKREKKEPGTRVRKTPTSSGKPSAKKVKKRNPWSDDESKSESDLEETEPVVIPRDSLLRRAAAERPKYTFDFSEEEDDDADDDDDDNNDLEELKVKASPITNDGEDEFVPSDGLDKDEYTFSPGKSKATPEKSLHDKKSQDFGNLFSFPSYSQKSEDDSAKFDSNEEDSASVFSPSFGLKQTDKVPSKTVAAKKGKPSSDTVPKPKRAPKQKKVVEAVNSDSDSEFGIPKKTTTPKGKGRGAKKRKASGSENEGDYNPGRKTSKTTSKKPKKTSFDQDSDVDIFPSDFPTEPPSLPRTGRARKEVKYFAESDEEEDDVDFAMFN

No constants are given. Whether binding was seen depends on the method and setting. In cells and extracts the contact can be indirect. These calls come from enrichment with a bait or labelling near it, and not all partners need be listed.

This test addresses Flag-tagged, truncated CHD7 (1-1,899 amino acids) (human) (UniProt Q9P2D1). As to the kind of experiment: affinity purification with mass spectrometry; Flag-tagged CHD7 (1-1,899) precipitated with M2 agarose from Benzonase-treated nuclear extracts of CHD7 KO HEK293T cells; eluted with 3x Flag peptides in IP buffer with 300 mM NaCl; Orbitrap XL; mock: empty vector.
In the case of “BRG1, endogenous in HEK293T (from UniProt P51532 1-1647)”, the binding entry is “binds”.
The value for “CHD8, endogenous in HEK293T (from UniProt Q9HCK8 1-2581)” was “binds”.
The value for “PARP1, endogenous in HEK293T (from UniProt P09874 1-1014) (enzyme)” was “binds”.
As for “TOP1, endogenous in HEK293T (from UniProt P11387 1-765) (enzyme)”, the entry is “binds”; as for “TOP2B (DNA topoisomerase IIb), endogenous in HEK293T (from UniProt Q02880 1-1626) (enzyme)”, “binds”.
